Results on three molecules are retold here after paper PMC4899725, “The transcriptional regulator GalR self-assembles to form highly regular tubular structures” (Scientific Reports, 2016).

Substitutions are numbered along the chain they refer to. Numbers in names are those of the source. Results are given in words; binding and its absence hold for the method and conditions named. Some results given as binding are weak or reduced against the parent protein; the word gives no strength. Tags and fused reporters may be left off the sequences shown.

In test [1] the target is GalR^T322R, hexahistidine-tagged (Escherichia coli) (UniProt P03024). Description: light scattering; 2 uM GalR diluted from a stock in 1 M NaCl into 50 mM TrisCl pH 8 with 78-1000 mM NaCl (or 25-700 mM Na2SO4 with 78 mM NaCl); 365 nm, stirring, room temperature; dimers to aggregates at low ionic strength; both purified.
The target of test [2] is GalR^N48I, hexahistidine-tagged (Escherichia coli) (UniProt P03024). The test is described as above.
Test [3] concerns the target GalR^Y244F, hexahistidine-tagged (Escherichia coli) (UniProt P03024). The description is as above.
For test [4] the target is unchanged. Description: negative staining transmission electron microscopy; data not shown; GalR^Y244F aggregates; both purified.

B1: GalR^T322R, hexahistidine-tagged (natural protein, Escherichia coli, UniProt P03024 1-343, looked up)
chain: MATIKDVARLAGVSVATVSRVINNSPKASEASRLAVHSAMESLSYHPNANARALAQQTTETVGLVVGDVSDPFFGAMVKAVEQVAYHTGNFLLIGNGYHNEQKERQAIEQLIRHRCAALVVHAKMIPDADLASLMKQMPGMVLINRILPGFENRCIALDDRYGAWLATRHLIQQGHTRIGYLCSNHSISDAEDRLQGYYDALAESGIAANDRLVTFGEPDESGGEQAMTELLGRGRNFTAVACYNDSMAAGAMGVLNDNGIDVPGEISLIGFDDVLVSRYVRPRLTTVRYPIVTMATQAAELALALADNRPLPEITNVFSPRLVRRHSVSTPSLEASHHATSD
notes: GalR of Escherichia coli with T322R; Tetramer formation is strongly impaired in this mutant (cited); also called non-tetramerizing GalR mutant; source: expressed from vector plasmid pSEM1026 under an L-arabinose inducible promoter, purified
B1: the binding entry in test [1] is reported as “binds weakly”.

B2: GalR^N48I, hexahistidine-tagged (natural protein, Escherichia coli, UniProt P03024 1-343, looked up)
chain: B1 chain with N48I, R322T
notes: GalR of Escherichia coli with N48I; source: expressed from vector plasmid pSEM1026 under an L-arabinose inducible promoter, purified
Regarding B2, the binding entry in test [2] is reported as “binds weakly”.

B3: GalR^Y244F, hexahistidine-tagged (protein, UniProt P03024 1-343)
chain: B1 chain with Y244F, R322T
As to B3, the binding entry in test [3] and in test [4] was “binds” in each case.
